Test results published in patent US20250243427A1, “PRECURSORS OF PHENOLIC FRAGRANT COMPOUNDS” (GIVAUDAN SA, priority 2021, published 2025).

Assay: Headspace analysis of released volatiles (SPME GC-MS)
Type: physicochemical
Conditions: precursor on paper strip in closed headspace vial, 24 h daylight imitation lamp, 27-28° C.; for Released Volatiles: (Z)-hex-3-en-1-ol, relative peak area %: not related to molar release rates

SMILES: CC=CCCOc1ccc(C=O)cc1OCC [Example 33, 3-ethoxy-4-(pent-3-en-1-yloxy)benzaldehyde]
- Released Volatiles: (E,Z)-pent-3-en-1-ol, relative peak area %: (E,Z)-pent-3-en-1-ol (1.2%), ethyl vanillin
- Released Volatiles: ethyl vanillin, relative peak area %: (0.7%)

SMILES: CC/C=C\CCOc1ccc(COC(C)C)cc1OCC [Example 50, (Z)-2-ethoxy-1-(hex-3-en-1-yloxy)-4-(isopropoxymethyl)benzene]
- Released Volatiles: 2-ethoxy-4(isopropoxymethyl)phenol (Propyl Diantilis), relative peak area %: Diantilis », 17.1%)
- Released Volatiles: (Z)-hex-3-en-1-ol, relative peak area %: (Z)-hex-3-en-1-ol (0.8%), 2-ethoxy-

SMILES: C=CCc1ccc(OCC/C=C\CC)c(OC)c1 [Example 10, (Z)-4-allyl-1-(hex-3-en-1-yloxy)-2-methoxybenzene]
- Released Volatiles: eugenol, relative peak area %: 1.0%
- Released Volatiles: (Z)-hex-3-en-1-ol, relative peak area %: 1.9%

SMILES: CC/C=C\CCOc1ccc(C=O)cc1OCC [Example 1, (Z)-3-ethoxy-4-(hex-3-en-1-yloxy)benzaldehyde]
- Released Volatiles: ethyl vanillin, relative peak area %: (0.3%)
- Released Volatiles: (Z)-hex-3-en-1-ol, relative peak area %: (Z)-hex-3-en-1-ol (5.6%), ethyl vanillin

SMILES: CCOc1cc(C=O)ccc1OCCC=C(C)C [Example 34, 3-ethoxy-4-((4-methylpent-3-en-1-yl)oxy)benzaldehyde]
- Released Volatiles: 3-methylbut-2-enal, relative peak area %: 3-methylbut-2-enal (0.1%), 4-methylpent-3-
- Released Volatiles: 4-methylpent-3-en-1-ol, relative peak area %: en-1-ol (2.7%), 5,5-dimethylfuran-2(5H)-one
- Released Volatiles: 5,5-dimethylfuran-2(5H)-one, relative peak area %: 0.3%
- Released Volatiles: ethyl vanillin, relative peak area %: 0.5%
